Assay results reported in paper PMC12451656, “HMGB1 B‑Box Domain Associates Promote Protein–Polyelectrolyte Interactions” (The Journal of Physical Chemistry. B, 2025).
Results are given in words; binding and its absence hold for the method and conditions named. Some results given as binding are weak or reduced against the parent protein; the word gives no strength.

Key:
[1] = target: HMGB1 B-box domain (human) (UniProt P09429); assay: ultrafiltration (30 kDa cutoff) + UV-vis absorbance at 280 nm; 450 μL of 147 μM B-box in 25 mM Tris-HCl pH 6.9, 150 mM NaCl, spun through a 30 kDa Amicon filter at 4 °C; concentrations of the initial, top and bottom solutions by A280; both purified
[2] = target: HMGB1 B-box domain (human) (UniProt P09429); assay: condition: only after filtration through a 30 kDa cutoff membrane; 16 μM; dynamic light scattering; B-box flow-through of a 30 kDa cutoff filter, 16 μM, 25 mM Tris-HCl pH 6.9, 150 mM NaCl, 25 °C; followed over 6 h; both purified
[3] = target: HMGB1 B-box domain (human) (UniProt P09429); assay: dynamic light scattering; as-prepared, unfiltered B-box, 30 μM, 25 mM Tris-HCl pH 6.9, 150 mM NaCl, 25 °C, backscattering mode; the retentate of the 30 kDa filter was also measured (Figure S6); both purified

B1: HMGB1 B-box domain (domain or fragment, human)
chain: MARIDPNAPKRPPSAFFLFCSEYRPKIKGEHPGLSIGDVAKKLGEMWNNTAADDKQPYEKKAAKLKEKYEKDIAAYRAKGKPDAAKKGVV
notes: initiator methionine followed by the triplet alanine-arginine-isoleucine (ARI), inserted through the forward primer for better expression; HMGB1 (high mobility group box 1), human, B-box domain, cloned from the human HMGB1 cDNA; Numbers count on: the construct (Cys19 = Cys106 of full-length HMGB1; Trp46); By the reverse primer, the XhoI site adds LE between V176 and the SGS-His8 tag; The DLS …
In the case of B1, the binding [1] is reported as “binds weakly”, the binding [2] is reported as “no binding” and the binding [3] is reported as “binds weakly”.
